Common to all, as to settings: yeast three-hybrid, YBZ-1, SC-Leu-His + 0.5 mM 3-AT, 4 days
Experiment [1] has as its target T1, PUM1 PUF domain R3-AIR C935A + R936I + Q939R (Homo sapiens) (UniProt Q14671).
T1 sequence: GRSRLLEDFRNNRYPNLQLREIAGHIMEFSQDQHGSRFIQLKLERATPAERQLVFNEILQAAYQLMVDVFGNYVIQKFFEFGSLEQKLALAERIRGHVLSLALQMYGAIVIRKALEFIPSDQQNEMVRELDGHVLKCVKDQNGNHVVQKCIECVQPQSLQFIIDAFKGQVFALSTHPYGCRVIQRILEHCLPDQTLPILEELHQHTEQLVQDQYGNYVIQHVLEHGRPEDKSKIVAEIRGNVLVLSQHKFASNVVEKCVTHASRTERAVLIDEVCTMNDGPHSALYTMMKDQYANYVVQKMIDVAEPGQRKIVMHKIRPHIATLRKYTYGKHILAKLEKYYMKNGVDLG

The target of experiment [2] is T2, PUM1 PUF domain R3-CNE R936N + Q939E (UniProt Q14671).
T2 sequence: T1 sequence with A108C, I109N, R112E

The target in experiment [3] is T3, PUM1 PUF domain R3-CRA Q939A (Homo sapiens) (UniProt Q14671).
T3 sequence: T1 sequence with A108C, I109R, R112A

In experiment [4] the target is T4, PUM1 PUF domain R3-DRE C935D + Q939E (UniProt Q14671).
T4 sequence: T1 sequence with A108D, I109R, R112E

Experiment [5] has as its target T5, PUM1 PUF domain R3-DWE C935D + R936W + Q939E (UniProt Q14671).
T5 sequence: T1 sequence with A108D, I109W, R112E

The target in experiment [6] is T6, PUM1 PUF domain R3-FSR C935F + R936S + Q939R (Homo sapiens) (UniProt Q14671).
T6 sequence: T1 sequence with A108F, I109S

Experiment [7] concerns the target T7, PUM1 PUF domain R3-GCF C935G + R936C + Q939F (Homo sapiens) (UniProt Q14671).
T7 sequence: T1 sequence with A108G, I109C, R112F

Experiment [8] addresses T8, PUM1 PUF domain R3-GWF C935G + R936W + Q939F (Homo sapiens) (UniProt Q14671).
T8 sequence: T1 sequence with A108G, I109W, R112F

Experiment [9] concerns the target T9, PUM1 PUF domain R3-IRV C935I + Q939V (Homo sapiens) (UniProt Q14671).
T9 sequence: T1 sequence with A108I, I109R, R112V

The target of experiment [10] is T10, PUM1 PUF domain R3-LSE C935L + R936S + Q939E (Homo sapiens) (UniProt Q14671).
T10 sequence: T1 sequence with A108L, I109S, R112E

Experiment [11] deals with T11, PUM1 PUF domain R3-QCD C935Q + R936C + Q939D (UniProt Q14671).
T11 sequence: T1 sequence with A108Q, I109C, R112D

Experiment [12] addresses T12, PUM1 PUF domain R3-SME C935S + R936M + Q939E (UniProt Q14671).
T12 sequence: T1 sequence with A108S, I109M, R112E

For experiment [13], the target named is T13, PUM1 PUF domain R3-SVE C935S + R936V + Q939E (UniProt Q14671).
T13 sequence: T1 sequence with A108S, I109V, R112E

The target of experiment [14] is T14, PUM1 PUF domain R3-TME C935T + R936M + Q939E (UniProt Q14671).
T14 sequence: T1 sequence with A108T, I109M, R112E

Experiment [15] deals with T15, PUM1 PUF domain R3-TQE C935T + R936Q + Q939E (UniProt Q14671).
T15 sequence: T1 sequence with A108T, I109Q, R112E

Experiment [16] concerns the target T16, PUM1 PUF domain R3-VRA C935V + Q939A (Homo sapiens) (UniProt Q14671).
T16 sequence: T1 sequence with A108V, I109R, R112A

For experiment [17], the target named is T17, PUM1 PUF domain R3-VRC C935V + Q939C (Homo sapiens) (UniProt Q14671).
T17 sequence: T1 sequence with A108V, I109R, R112C

Experiment [18] deals with T18, PUM1 PUF domain R3-VRE C935V + Q939E (UniProt Q14671).
T18 sequence: T1 sequence with A108V, I109R, R112E

The target in experiment [19] is T19, PUM1 PUF domain R3-VRY C935V + Q939Y (UniProt Q14671).
T19 sequence: T1 sequence with A108V, I109R, R112Y

The target of experiment [20] is T20, PUM1 PUF domain R3-YRL C935Y + Q939L (UniProt Q14671).
T20 sequence: T1 sequence with A108Y, I109R, R112L

Numbering of substitutions follows the chain as printed. This is one part of the list. For some assays here: At the low end of the ranking the order means little.

Consider one sequence from PMC8384837.

Take “GGCUAGAACUAGUGGAUCCCCCGGCGCCCGGCGGCUCGAGCCCGGGUAAGUGUAAUUAGUCUGCAUGCCGCCGGGCGCCAUGCCUGCAGGUCGACUCUAGAAAACAUG”: the binding signal (log2 enrichment (interaction score)) in experiment [1] was 0.73; in [2] it was -4.31; in [3], 0.21; in experiment [4], less than -8.04; in experiment [5], -4.78; in experiment [6] it was 0.73. The binding signal (log2 enrichment (interaction score)) in experiment [7] is 0.28; in [8] it was 0.27; in [9], 0.8; in [10] it was 0.38; in experiment [11] it was less than -6.61; in experiment [12] it was less than -8.15. Also, the binding signal (log2 enrichment (interaction score)) in experiment [13] is less than -7.9; in [14], less than -6.56; in [15], less than -7.55; in [16], 0.29; in experiment [17] it was 1.07; in [18] it was less than -7.02. In addition, the binding signal (log2 enrichment (interaction score)) is less than -8.77 in experiment [19] and less than -8.19 in [20].
